These are yes or no findings as the source states them, for the method shown. In cells and extracts the contact can be indirect. Some results given as binding are weak or reduced against the parent protein; the word gives no strength.
Target: p27^kip Cdk inhibitor (human (endogenous in human primary preadipocytes)) (UniProt P46527)
Test: co-IP; IP with anti-p27kip antibody (1:50) from cytoplasmic and nuclear fractions (NE-PER kit) of human primary preadipocytes transfected with empty vector, THRA or THRA K283Q/K288R, synchronised by serum withdrawal and re-fed serum for 9 h; immunoblot with anti-cyclin D1

By UniProt entry, the sequences of proteins in these tests, tags left out.
UniProt P46527: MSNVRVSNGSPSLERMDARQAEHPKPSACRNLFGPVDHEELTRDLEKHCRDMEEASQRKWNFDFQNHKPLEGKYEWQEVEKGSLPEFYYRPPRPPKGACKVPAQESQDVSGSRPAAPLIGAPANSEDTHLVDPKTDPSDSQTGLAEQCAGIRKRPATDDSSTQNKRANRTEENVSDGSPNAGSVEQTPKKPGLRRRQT
UniProt P24385: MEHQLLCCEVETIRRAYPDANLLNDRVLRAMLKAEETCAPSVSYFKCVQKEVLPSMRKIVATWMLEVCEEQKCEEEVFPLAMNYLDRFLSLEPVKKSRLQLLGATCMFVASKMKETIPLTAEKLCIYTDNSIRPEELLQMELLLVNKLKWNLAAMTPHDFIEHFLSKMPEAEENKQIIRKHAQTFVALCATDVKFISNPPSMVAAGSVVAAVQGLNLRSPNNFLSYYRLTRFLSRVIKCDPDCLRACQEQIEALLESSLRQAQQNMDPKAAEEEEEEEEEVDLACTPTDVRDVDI

In the case of cyclin D1 (from UniProt P24385 1-295), the binding is reported as “binds”.
